Reference: article PMC5444833
These are yes or no findings as the source states them, for the method shown. Binding seen in cells or lysates may run through a third protein. Some entries that bind do so weakly or less than the wild type.

Sequences of proteins named here, by UniProt entry; tags and fusion partners are left off.
UniProt Q96EB6: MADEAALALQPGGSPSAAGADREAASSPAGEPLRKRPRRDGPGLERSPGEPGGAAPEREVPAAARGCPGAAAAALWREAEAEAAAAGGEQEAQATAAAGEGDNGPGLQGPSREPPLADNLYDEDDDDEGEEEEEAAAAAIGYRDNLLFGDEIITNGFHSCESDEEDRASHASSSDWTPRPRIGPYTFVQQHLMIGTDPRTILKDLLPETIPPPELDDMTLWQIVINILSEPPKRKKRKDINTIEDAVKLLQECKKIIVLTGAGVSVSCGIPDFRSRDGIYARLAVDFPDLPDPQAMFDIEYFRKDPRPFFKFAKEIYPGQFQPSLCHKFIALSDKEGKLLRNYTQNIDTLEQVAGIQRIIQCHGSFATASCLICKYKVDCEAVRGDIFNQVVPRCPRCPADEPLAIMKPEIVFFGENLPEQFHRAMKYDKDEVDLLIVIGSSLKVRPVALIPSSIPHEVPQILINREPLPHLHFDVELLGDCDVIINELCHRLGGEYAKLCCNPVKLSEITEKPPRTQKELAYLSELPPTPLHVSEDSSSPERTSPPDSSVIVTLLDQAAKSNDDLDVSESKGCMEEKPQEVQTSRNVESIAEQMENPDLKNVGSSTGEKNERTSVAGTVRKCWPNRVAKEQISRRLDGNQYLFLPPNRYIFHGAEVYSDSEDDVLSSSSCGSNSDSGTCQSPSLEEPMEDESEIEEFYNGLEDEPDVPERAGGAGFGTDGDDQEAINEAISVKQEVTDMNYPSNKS
UniProt Q13950: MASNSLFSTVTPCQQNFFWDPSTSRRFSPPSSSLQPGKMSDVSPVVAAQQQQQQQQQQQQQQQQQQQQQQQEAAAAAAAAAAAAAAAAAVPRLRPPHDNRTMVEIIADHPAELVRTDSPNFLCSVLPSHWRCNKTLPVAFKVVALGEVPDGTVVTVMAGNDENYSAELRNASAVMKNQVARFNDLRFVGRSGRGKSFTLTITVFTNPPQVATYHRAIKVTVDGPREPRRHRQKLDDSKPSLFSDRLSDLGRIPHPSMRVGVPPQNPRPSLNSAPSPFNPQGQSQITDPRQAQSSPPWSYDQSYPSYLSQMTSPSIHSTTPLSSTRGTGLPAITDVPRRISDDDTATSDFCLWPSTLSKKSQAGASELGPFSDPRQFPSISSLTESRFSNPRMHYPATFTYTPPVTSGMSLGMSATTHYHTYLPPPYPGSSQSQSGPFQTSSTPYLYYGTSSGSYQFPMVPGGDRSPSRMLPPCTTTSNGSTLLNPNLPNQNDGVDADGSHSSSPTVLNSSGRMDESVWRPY

Target: FLAG-SIRT1 (UniProt Q96EB6)
Test: co-IP; 293T cells transfected with FLAG-SIRT1, HA-RUNX2 or both, empty plasmid backbones as controls; IP and Western blot with FLAG and HA antibodies

binding: binds
Substance: HA-RUNX2 (from UniProt Q13950 1-521)
